For test [1], the target named is T1, HA-tagged TGM2 (transglutaminase 2) (UniProt P21980).
T1 sequence: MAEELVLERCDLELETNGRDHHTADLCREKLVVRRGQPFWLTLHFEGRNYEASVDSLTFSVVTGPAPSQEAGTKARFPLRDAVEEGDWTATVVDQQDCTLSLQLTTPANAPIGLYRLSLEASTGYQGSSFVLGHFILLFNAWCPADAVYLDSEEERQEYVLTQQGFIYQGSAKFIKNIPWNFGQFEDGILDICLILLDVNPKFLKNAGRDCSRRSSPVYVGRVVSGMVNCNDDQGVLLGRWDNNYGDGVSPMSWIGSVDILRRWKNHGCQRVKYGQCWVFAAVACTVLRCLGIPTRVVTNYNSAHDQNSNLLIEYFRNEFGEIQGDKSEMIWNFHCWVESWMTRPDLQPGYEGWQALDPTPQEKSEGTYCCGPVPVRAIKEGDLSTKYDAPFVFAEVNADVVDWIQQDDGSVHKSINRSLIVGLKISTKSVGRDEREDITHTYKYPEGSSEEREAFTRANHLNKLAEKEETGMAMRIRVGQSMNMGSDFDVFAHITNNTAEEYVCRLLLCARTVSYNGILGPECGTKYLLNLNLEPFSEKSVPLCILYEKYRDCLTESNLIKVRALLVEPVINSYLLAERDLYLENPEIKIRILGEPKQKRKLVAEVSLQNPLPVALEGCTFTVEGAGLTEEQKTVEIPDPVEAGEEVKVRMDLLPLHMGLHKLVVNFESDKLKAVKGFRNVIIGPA
Kind of test: co-IP; exogenous HA-tagged TGM2 and Flag-tagged PAD4 in HEK-293T cells; IP of Flag-tagged PAD4 (6H) and of HA-tagged TGM2 (6I).

Amino acid sequences for entries named in this document (tags omitted).
UniProt Q9UM07: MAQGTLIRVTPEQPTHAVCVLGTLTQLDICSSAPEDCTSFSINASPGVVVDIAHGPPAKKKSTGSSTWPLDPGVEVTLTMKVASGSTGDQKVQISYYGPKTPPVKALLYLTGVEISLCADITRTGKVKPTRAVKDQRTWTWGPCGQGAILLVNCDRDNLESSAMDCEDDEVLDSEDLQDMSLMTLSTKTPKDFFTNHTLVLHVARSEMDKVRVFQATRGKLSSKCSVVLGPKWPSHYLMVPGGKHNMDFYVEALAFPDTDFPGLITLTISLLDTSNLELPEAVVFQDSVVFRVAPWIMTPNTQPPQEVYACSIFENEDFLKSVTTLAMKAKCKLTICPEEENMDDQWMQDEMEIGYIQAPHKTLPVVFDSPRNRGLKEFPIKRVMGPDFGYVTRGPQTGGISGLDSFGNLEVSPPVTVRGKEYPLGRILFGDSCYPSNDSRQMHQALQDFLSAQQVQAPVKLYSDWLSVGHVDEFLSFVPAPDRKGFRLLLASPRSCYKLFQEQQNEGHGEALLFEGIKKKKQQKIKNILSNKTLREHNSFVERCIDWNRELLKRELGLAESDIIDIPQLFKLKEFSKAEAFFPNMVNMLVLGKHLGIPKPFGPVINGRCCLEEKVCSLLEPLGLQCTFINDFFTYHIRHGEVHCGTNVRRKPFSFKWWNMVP

Test [2] addresses T2, purified TGM2 protein (UniProt P21980).
T2 sequence: T1 sequence
Kind of test: pull-down; purified PAD4 and TGM2 proteins, in vitro; both purified.

Test [3] deals with T3, endogenous TGM2 (human (endogenous in HL-60)) (UniProt P21980).
T3 sequence: T1 sequence
Kind of test: co-IP; endogenous PAD4 and TGM2 in HL-60 cells.

Test [4] addresses Flag-tagged PAD4 (peptidylarginine deiminase 4) (UniProt Q9UM07). Kind of test: co-IP; exogenous HA-tagged TGM2 and Flag-tagged PAD4 in HEK-293T cells; IP of Flag-tagged PAD4 (6H) and of HA-tagged TGM2 (6I).

No constants are given. Whether binding was seen depends on the method and setting. For some of these results: In cells and extracts the contact can be indirect. Some entries that bind do so weakly or less than the wild type. For some of these results: Sequences can lack the tags named with a protein.

For four molecules, binding results are on record in publication PMC11996869.

Regarding “Flag-tagged PAD4 (peptidylarginine deiminase 4) (from UniProt Q9UM07 1-663) (enzyme)”, the binding result in test [1] is “binds”.

Take “purified PAD4 protein (from UniProt Q9UM07 1-663) (enzyme)”: the binding entry in test [2] is listed as “binds”.

Regarding “endogenous PAD4 (from UniProt Q9UM07 1-663) (enzyme)”, the binding entry in test [3] is “binds”.

B1: HA-tagged TGM2 (transglutaminase 2) (enzyme, UniProt P21980 1-687)
chain: T1 sequence
Take B1: the binding result in test [4] is “binds”.
